Laboratory results taken from article PMC8298264, “Function of cofactor Akirin2 in the regulation of gene expression in model human neutrophil-like HL60 cells” (Bioscience Reports, 2021).

B1: sp¦P22695¦QCR2_HUMAN (protein, UniProt P22695 15-453, looked up)
Cytochrome b-c1 complex …: SLKVAPKVKATAAPAGAPPQPQDLEFTKLPNGLVIASLENYSPVSRIGLFIKAGSRYEDFSNLGTTHLLRLTSSLTTKGASSFKITRGIEAVGGKLSVTATRENMAYTVECLRGDVDILMEFLLNVTTAPEFRRWEVADLQPQLKIDKAVAFQNPQTHVIENLHAAAYRNALANPLYCPDYRIGKVTSEELHYFVQNHFTSARMALIGLGVSHPVLKQVAEQFLNMRGGLGLSGAKANYRGGEIREQNGDSLVHAAFVAESAVAGSAEANAFSVLQHVLGAGPHVKRGSNTTSHLHQAVAKATQQPFDVSAFNASYSDSGLFGIYTISQATAAGDVIKAAYNQVKTIAQGNLSNTDVQAAKNKLKAGYLMSVESSECFLEEVGSQALVAGSYMPPSTVLQQIDSVANADIINAAKKFVSGQKSMAASGNLGHTPFVDEL
B2: sp¦O00743¦PPP6_HUMAN (protein, UniProt O00743 1-305, looked up)
Serine/threonine-protein …: MAPLDLDKYVEIARLCKYLPENDLKRLCDYVCDLLLEESNVQPVSTPVTVCGDIHGQFYDLCELFRTGGQVPDTNYIFMGDFVDRGYYSLETFTYLLALKAKWPDRITLLRGNHESRQITQVYGFYDECQTKYGNANAWRYCTKVFDMLTVAALIDEQILCVHGGLSPDIKTLDQIRTIERNQEIPHKGAFCDLVWSDPEDVDTWAISPRGAGWLFGAKVTNEFVHINNLKLICRAHQLVHEGYKFMFDEKLVTVWSAPNYCYRCGNIASIMVFKDVNTREPKLFRAVPDSERVIPPRTTTPYFL
B3: sp¦Q9NSD9¦SYFB_HUMAN (protein, UniProt Q9NSD9 1-589, looked up)
Phenylalanine--tRNA ligase …: MPTVSVKRDLLFQALGRTYTDEEFDELCFEFGLELDEITSEKEIISKEQGNVKAAGASDVVLYKIDVPANRYDLLCLEGLVRGLQVFKERIKAPVYKRVMPDGKIQKLIITEETAKIRPFAVAAVLRNIKFTKDRYDSFIELQEKLHQNICRKRALVAIGTHDLDTLSGPFTYTAKRPSDIKFKPLNKTKEYTACELMNIYKTDNHLKHYLHIIENKPLYPVIYDSNGVVLSMPPIINGDHSRITVNTRNIFIECTGTDFTKAKIVLDIIVTMFSEYCENQFTVEAAEVVFPNGKSHTFPELAYRKEMVRADLINKKVGIRETPENLAKLLTRMYLKSEVIGDGNQIEIEIPPTRADIIHACDIVEDAAIAYGYNNIQMTLPKTYTIANQFPLNKLTELLRHDMAAAGFTEALTFALCSQEDIADKLGVDISATKAVHISNPKTAEFQVARTTLLPGLLKTIAANRKMPLPLKLFEISDIVIKDSNTDVGAKNYRHLCAVYYNKNPGFEIIHGLLDRIMQLLDVPPGEDKGGYVIKASEGPAFFPGRCAEIFARGQSVGKLGVLHPDVITKFELTMPCSSLEINVGPFL
B4: sp¦Q86VP6¦CAND1_HUMAN (protein, UniProt Q86VP6 2-1230, looked up)
Cullin-associated …: ASASYHISNLLEKMTSSDKDFRFMATNDLMTELQKDSIKLDDDSERKVVKMILKLLEDKNGEVQNLAVKCLGPLVSKVKEYQVETIVDTLCTNMLSDKEQLRDISSIGLKTVIGELPPASSGSALAANVCKKITGRLTSAIAKQEDVSVQLEALDIMADMLSRQGGLLVNFHPSILTCLLPQLTSPRLAVRKRTIIALGHLVMSCGNIVFVDLIEHLLSELSKNDSMSTTRTYIQCIAAISRQAGHRIGEYLEKIIPLVVKFCNVDDDELREYCIQAFESFVRRCPKEVYPHVSTIINICLKYLTYDPNYNYDDEDEDENAMDADGGDDDDQGSDDEYSDDDDMSWKVRRAAAKCLDAVVSTRHEMLPEFYKTVSPALISRFKEREENVKADVFHAYLSLLKQTRPVQSWLCDPDAMEQGETPLTMLQSQVPNIVKALHKQMKEKSVKTRQCCFNMLTELVNVLPGALTQHIPVLVPGIIFSLNDKSSSSNLKIDALSCLYVILCNHSPQVFHPHVQALVPPVVACVGDPFYKITSEALLVTQQLVKVIRPLDQPSSFDATPYIKDLFTCTIKRLKAADIDQEVKERAISCMGQIICNLGDNLGSDLPNTLQIFLERLKNEITRLTTVKALTLIAGSPLKIDLRPVLGEGVPILASFLRKNQRALKLGTLSALDILIKNYSDSLTAAMIDAVLDELPPLISESDMHVSQMAISFLTTLAKVYPSSLSKISGSILNELIGLVRSPLLQGGALSAMLDFFQALVVTGTNNLGYMDLLRMLTGPVYSQSTALTHKQSYYSIAKCVAALTRACPKEGPAVVGQFIQDVKNSRSTDSIRLLALLSLGEVGHHIDLSGQLELKSVILEAFSSPSEEVKSAASYALGSISVGNLPEYLPFVLQEITSQPKRQYLLLHSLKEIISSASVVGLKPYVENIWALLLKHCECAEEGTRNVVAECLGKLTLIDPETLLPRLKGYLISGSSYARSSVVTAVKFTISDHPQPIDPLLKNCIGDFLKTLEDPDLNVRRVALVTFNSAAHNKPSLIRDLLDTVLPHLYNETKVRKELIREVEMGPFKHTVDDGLDIRKAAFECMYTLLDSCLDRLDIFEFLNHVEDGLKDHYDIKMLTFLMLVRLSTLCPSAVLQRLDRLVEPLRATCTTKVKANSVKQEFEKQDELKRSAMRAVAALLTIPEAEKSPLMSEFQSQISSNPELAAIFESIQKDSSSTNLESMDTS
B5: sp¦P11216¦PYGB_HUMAN (protein, UniProt P11216 2-843, looked up)
Glycogen phosphorylase, brain …: AKPLTDSEKRKQISVRGLAGLGDVAEVRKSFNRHLHFTLVKDRNVATPRDYFFALAHTVRDHLVGRWIRTQQHYYERDPKRIYYLSLEFYMGRTLQNTMVNLGLQNACDEAIYQLGLDLEELEEIEEDAGLGNGGLGRLAACFLDSMATLGLAAYGYGIRYEFGIFNQKIVNGWQVEEADDWLRYGNPWEKARPEYMLPVHFYGRVEHTPDGVKWLDTQVVLAMPYDTPVPGYKNNTVNTMRLWSAKAPNDFKLQDFNVGDYIEAVLDRNLAENISRVLYPNDNFFEGKELRLKQEYFVVAATLQDIIRRFKSSKFGCRDPVRTCFETFPDKVAIQLNDTHPALSIPELMRILVDVEKVDWDKAWEITKKTCAYTNHTVLPEALERWPVSMFEKLLPRHLEIIYAINQRHLDHVAALFPGDVDRLRRMSVIEEGDCKRINMAHLCVIGSHAVNGVARIHSEIVKQSVFKDFYELEPEKFQNKTNGITPRRWLLLCNPGLADTIVEKIGEEFLTDLSQLKKLLPLVSDEVFIRDVAKVKQENKLKFSAFLEKEYKVKINPSSMFDVHVKRIHEYKRQLLNCLHVVTLYNRIKRDPAKAFVPRTVMIGGKAAPGYHMAKLIIKLVTSIGDVVNHDPVVGDRLKVIFLENYRVSLAEKVIPAADLSQQISTAGTEASGTGNMKFMLNGALTIGTMDGANVEMAEEAGAENLFIFGLRVEDVEALDRKGYNAREYYDHLPELKQAVDQISSGFFSPKEPDCFKDIVNMLMHHDRFKVFADYEAYMQCQAQVDQLYRNPKEWTKKVIRNIACSGKFSSDRTITEYAREIWGVEPSDLQIPPPNIPRD
B6: sp¦Q9Y3L3¦3BP1_HUMAN (protein, UniProt Q9Y3L3 1-701, looked up)
SH3 domain-binding protein 1: MMKRQLHRMRQLAQTGSLGRTPETAEFLGEDLLQVEQRLEPAKRAAHNIHKRLQACLQGQSGADMDKRVKKLPLMALSTTMAESFKELDPDSSMGKALEMSCAIQNQLARILAEFEMTLERDVLQPLSRLSEEELPAILKHKKSLQKLVSDWNTLKSRLSQATKNSGSSQGLGGSPGSHSHTTMANKVETLKEEEEELKRKVEQCRDEYLADLYHFVTKEDSYANYFIRLLEIQADYHRRSLSSLDTALAELRENHGQADHSPSMTATHFPRVYGVSLATHLQELGREIALPIEACVMMLLSEGMKEEGLFRLAAGASVLKRLKQTMASDPHSLEEFCSDPHAVAGALKSYLRELPEPLMTFDLYDDWMRAASLKEPGARLQALQEVCSRLPPENLSNLRYLMKFLARLAEEQEVNKMTPSNIAIVLGPNLLWPPEKEGDQAQLDAASVSSIQVVGVVEALIQSADTLFPGDINFNVSGLFSAVTLQDTVSDRLASEELPSTAVPTPATTPAPAPAPAPAPAPALASAATKERTESEVPPRPASPKVTRSPPETAAPVEDMARRTKRPAPARPTMPPPQVSGSRSSPPAPPLPPGSGSPGTPQALPRRLVGSSLRAPTVPPPLPPTPPQPARRQSRRSPASPSPASPGPASPSPVSLSNPAQVDLGAATAEGGAPEAISGVPTPPAIPPQPRPRSLASETN

These molecules were tested on human HL60 cells (assay: SWATH-MS proteomics, differential protein representation, akirin2 KO vs WT HL60 cells). Details: akirin2 KO vs WT HL60 cells, SWATH-MS; sheet "Under-represented in KO".
Format: cell-based
Description: Total proteins were extracted from WT and akirin2 KO HL60 cells using the AllPrep DNA/RNA/Protein Mini Kit (Qiagen) and protein concentration was determined using the BCA Protein Assay with BSA (Sigma–Aldrich) as standard. Protein extracts (150 µg per sample, n=3 biological replicates) from each WT and KO cells were trypsin digested using the FASP Protein Digestion Kit (Expedeon Ltd., Abcam, Cambridge, U.K.) and sequencing grade trypsin (Promega, Madison, WI, U.S.A.) following manufacturer’s recommendations. The resulting peptides were finally desalted on to OMIX Pipette tips C18 (Agilent Technologies, Santa Clara, CA, U.S.A.), dried down and stored at −20 °C until mass spectrometry analysis. […] Three micrograms of each protein digest from the three biological replicates of WT and akirin2 KO HL60 cells were used for the generation of the reference spectral ion library as part of the SWATH-MS analysis.
Peptides were eluted in a 120-min gradient from 5 to 30% solvent B in solvent A followed by 15-min gradient from 30 to 60% solvent B in solvent A (solvent A: 0.1% formic acid in water, solvent B: 0.1% formic acid in acetonitrile) and directly injected into the mass spectrometer for analysis. For IDA experiments, the mass spectrometer was set to scanning full spectra (350–1400 m/z) using 250 ms accumulation time per spectrum, followed by up to 50 MS/MS scans (100–1500 m/z). Candidate ions with a charge state between +2 and +5 counts per second above a minimum threshold of 100 were isolated for fragmentation. One MS/MS spectrum was collected for 100 ms, before adding those precursor ions to the exclusion list for 15 s (mass spectrometer operated by Analyst TF 1.6, AB Sciex). Dynamic background subtraction was turned off. MS/MS analyses were recorded in high-sensitivity mode with rolling collision energy on and a collision energy spread of 5. For SWATH quantitative analysis, six independent samples (three replicates from WT and akirin2 KO HL60 cells, 5 µg each) were subjected to the cyclic DIA of mass spectra using the SWATH variable windows calculator (V 1.0, AB Sciex) and the SWATH acquisition method editor (AB Sciex), similar to established methods. […] For these experiments, a 50-ms survey scan (350–1400 m/z) was acquired at the beginning of each cycle, and SWATH–MS/MS spectra were collected from 100–1500 m/z for 70 ms at high-sensitivity mode, resulting in a cycle time of 3.6 s. Collision energy for each window was determined according to the calculation for a charge +2 ion-centered upon the window with a collision energy spread of 15. To create a spectral library of all the detectable peptides in the samples, the IDA MS raw files were combined and subjected to database search in unison using ProteinPilot software v. 5.0.1 (AB Sciex) with the Paragon algorithm. […] The detected protein threshold was set at 0.05. An independent false discovery rate (FDR) analysis, using the target–decoy approach provided by Protein Pilot (AB Sciex; https://sciex.com/products/software/proteinpilot-software), was used to assess the quality of identifications. Positive identifications were considered when identified proteins reached 1% of global FDR. […] Global normalization was performed according to the Total Area Sums (TAS) of all detected proteins in the samples. […] Heatmaps were prepared using the Heatmapper (http://www.heatmapper.ca/expression/) with average linkage and Euclidean distance measurement method.

Compared with B1, B2 is lower in “Fold Change” value: 0.8272 for the first, 0.8271 for the second.

Going from B3 to B4, the “Fold Change” value rises from 0.8202 to 0.8231.

Compared with B5, B6 is lower in “Fold Change” value: 0.8252 for the first, 0.8194 for the second.

B1 and B2 are within 0.2 log units of each other in “Log (Fold Change)” value: -0.08239 for the first, -0.08246 for the second.

B3 and B4 are within 0.2 log units of each other in “Log (Fold Change)” value: -0.0861 for the first, -0.08455 for the second.

B5 and B6 are within 0.2 log units of each other in “Log (Fold Change)” value: -0.08342 for the first, -0.08649 for the second.
